According to publication PMC11882747:
No constants are given. Whether binding was seen depends on the method and setting. In cells and extracts the contact can be indirect. Some binding calls cover weakened binding; strength is not graded here.

Chains of the proteins cited; added tags and fusions are not shown.
UniProt P09429: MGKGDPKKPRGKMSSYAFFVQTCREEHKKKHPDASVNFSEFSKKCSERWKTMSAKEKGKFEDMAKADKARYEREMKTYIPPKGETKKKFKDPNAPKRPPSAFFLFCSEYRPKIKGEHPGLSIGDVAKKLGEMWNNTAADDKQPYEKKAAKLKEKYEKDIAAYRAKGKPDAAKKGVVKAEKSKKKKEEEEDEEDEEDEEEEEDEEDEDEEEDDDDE
UniProt P63159: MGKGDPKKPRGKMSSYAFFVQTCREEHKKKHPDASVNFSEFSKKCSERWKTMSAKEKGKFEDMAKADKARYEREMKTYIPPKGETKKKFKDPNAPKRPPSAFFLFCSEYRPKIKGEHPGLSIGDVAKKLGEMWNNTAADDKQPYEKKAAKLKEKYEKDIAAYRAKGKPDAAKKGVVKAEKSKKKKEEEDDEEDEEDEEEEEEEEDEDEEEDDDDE

Experiments:
[1] = target: heat shock protein 90 alpha family class A member 1 (Hsp90α), endogenous in HK-2 cells (human (endogenous in HK-2)) (UniProt P07900); test: co-IP; endogenous proteins in lysate (1 mg protein) of control HK-2 cells (normal culture, no TNF-α/OGSD); anti-Hsp90α, anti-HMGB1 or anti-IgG overnight at 4°C, protein A + G agarose, Western blot
[2] = target: heat shock protein 90 alpha family class A member 1 (Hsp90α), endogenous in HK-2 cells (human (endogenous in HK-2)) (UniProt P07900); test: co-IP; endogenous proteins in lysate (1 mg protein) of HK-2 cells treated with TNF-α/OGSD for 12 h, without or with LM49 (LM49 reduced the binding); anti-Hsp90α, anti-HMGB1 or anti-IgG overnight at 4°C, protein A + G agarose, Western blot
[3] = target: heat shock protein 90 alpha family class A member 1 (Hsp90α), endogenous in rat kidney (rat (endogenous in kidney tissue)) (UniProt P82995); test: co-IP; endogenous proteins in kidney tissue lysate (1 mg protein) of UUO rats, without or with LM49 90 mg/kg/day (LM49 reduced the binding); anti-Hsp90α, anti-HMGB1 or anti-IgG overnight at 4°C, protein A + G agarose, Western blot
[4] = target: heat shock protein 90 alpha family class A member 1 (Hsp90α), endogenous in rat kidney (rat (endogenous in kidney tissue)) (UniProt P82995); test: co-IP; endogenous proteins in kidney tissue lysate (1 mg protein) of sham-operated rats; anti-Hsp90α, anti-HMGB1 or anti-IgG overnight at 4°C, protein A + G agarose, Western blot

Row | Substance | binding [1] | binding [2] | binding [3] | binding [4]
1 | high-mobility group box 1 (HMGB1), endogenous in HK-2 cells (from UniProt P09429 1-215) | binds weakly | binds |  | 
2 | high-mobility group box 1 (HMGB1), endogenous in rat kidney (from UniProt P63159 1-215) |  |  | binds | binds weakly
